No constants are given. Whether binding was seen depends on the method and setting. Binding can be weak; no strength is given.
Target: full-length B. miyamotoi FbpB (Borrelia miyamotoi strain FR64b)
Assay: far-Western, overlay or dot blot; B. burgdorferi B314 whole-cell lysates (2.5 x10^7 cell equivalents) resolved by SDS-PAGE, on PVDF; probed with 20 μg zymogen or active C1r for 1 hour; detected with goat anti-human C1r; only the binder purified

By UniProt entry, the sequences of proteins in these tests, tags left out. Where a name states a change or a piece, a line headed by the entry shows the natural chain unless it says otherwise.
UniProt P00736: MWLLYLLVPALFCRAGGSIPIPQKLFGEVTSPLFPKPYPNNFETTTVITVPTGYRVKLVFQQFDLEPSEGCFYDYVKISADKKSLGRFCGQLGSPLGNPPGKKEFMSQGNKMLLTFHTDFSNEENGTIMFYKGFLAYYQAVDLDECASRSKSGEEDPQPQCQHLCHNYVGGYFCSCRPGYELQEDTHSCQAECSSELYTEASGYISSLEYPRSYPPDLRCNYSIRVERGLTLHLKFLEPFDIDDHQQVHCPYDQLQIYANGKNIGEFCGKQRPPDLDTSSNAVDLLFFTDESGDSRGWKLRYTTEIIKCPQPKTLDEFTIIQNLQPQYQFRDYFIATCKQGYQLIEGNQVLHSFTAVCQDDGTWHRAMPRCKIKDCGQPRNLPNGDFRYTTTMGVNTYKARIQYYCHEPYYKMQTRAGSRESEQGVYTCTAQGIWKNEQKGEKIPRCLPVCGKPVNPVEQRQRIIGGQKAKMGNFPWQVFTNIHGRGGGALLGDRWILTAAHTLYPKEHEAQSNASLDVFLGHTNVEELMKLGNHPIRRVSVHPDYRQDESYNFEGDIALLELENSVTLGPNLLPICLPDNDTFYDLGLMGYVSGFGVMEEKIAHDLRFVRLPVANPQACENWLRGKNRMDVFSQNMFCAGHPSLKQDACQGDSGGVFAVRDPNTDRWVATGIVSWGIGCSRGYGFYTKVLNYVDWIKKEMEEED

With “active C1r (from UniProt P00736) (enzyme)” the binding was “binds”.

Source: PMC9186069
